# PubChem BioAssay AID1671190 (National Center for Advancing Translational Sciences (NCATS), 2021)
# Protein sequences, listed by entry. Tags and fused reporters are not part of them. Lines headed by an entry give the natural chain unless they say otherwise; changes in a name come on top.
# UniProt P18054: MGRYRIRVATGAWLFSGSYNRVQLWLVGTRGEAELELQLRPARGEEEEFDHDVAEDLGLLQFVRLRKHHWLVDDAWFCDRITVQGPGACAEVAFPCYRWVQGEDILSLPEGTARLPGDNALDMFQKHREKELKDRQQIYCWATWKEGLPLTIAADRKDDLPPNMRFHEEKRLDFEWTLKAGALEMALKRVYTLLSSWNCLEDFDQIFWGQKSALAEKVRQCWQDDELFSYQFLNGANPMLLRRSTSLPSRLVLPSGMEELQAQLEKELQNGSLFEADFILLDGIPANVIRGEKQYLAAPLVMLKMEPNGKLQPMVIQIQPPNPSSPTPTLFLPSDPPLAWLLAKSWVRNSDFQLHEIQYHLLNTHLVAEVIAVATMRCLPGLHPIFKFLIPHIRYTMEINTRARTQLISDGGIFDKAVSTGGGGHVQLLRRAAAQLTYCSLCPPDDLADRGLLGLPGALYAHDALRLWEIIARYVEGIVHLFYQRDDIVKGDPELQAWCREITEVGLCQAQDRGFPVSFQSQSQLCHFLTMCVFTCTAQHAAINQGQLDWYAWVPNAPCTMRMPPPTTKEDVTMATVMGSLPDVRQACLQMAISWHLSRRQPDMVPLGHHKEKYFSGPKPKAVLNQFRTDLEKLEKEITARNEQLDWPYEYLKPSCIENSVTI
# Values joined by “and” are separate entries in the source; they are usually repeats but may differ in a detail not shown here. Equal values may be shown once. The campaign covered roughly 580,000 compounds. About 6,100 (1.1%) were called active. This list was built around the results that the source calls inconclusive (neither active nor inactive); the mix of calls is not that of the screen. Calls follow the shape of the dose curve; as a rule, active = well fitted inhibition curve with a large enough effect; inconclusive = small, poorly fitted or top-dose-only effect, or another doubt; inactive = no such curve, though single readings can be large or run the other way. Where the call is inconclusive, the potency comes from a doubtful curve fit.
# Molecular target: Polyunsaturated fatty acid lipoxygenase ALOX12 (Homo sapiens) (UniProt P18054)
# Test: Primary qHTS assay for inhibitors of human arachidonate 12S-lipoxygenase (ALOX12): Round 2
# Settings: purified 12hLO, xylenol orange hydroperoxide absorbance; activity change, negative = inhibition: at 108 µM (top of the series) unless noted
# Procedure, shortened: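 Hydroperoxide product was detected by ferrous iron/xylenol orange as the 573 to 405 nm absorbance ratio. Arachidonic acid at 40 uM (final) was turned over for 30 min at room temperature by 150 nM human 12hLO, pH 7.0 Hepes buffer, after 15 min compound preincubation.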
# % is scaled to controls: 0 for no effect and ±100 for the full control effect; potency is read from the fitted curve at half-maximal effect.
Structure (SMILES),"activity change, negative = inhibition",Potency
COc1ccc(C(=O)CCN2CCC(C)CC2)cc1,inactive: -14.5%,
CC(=O)n1cc([C@H]2C=C(C(=O)Nc3ccccc3)O[C@@H](OCCCCO)C2)c2ccccc21,,"inconclusive: 63.1 µM [inhibitor, partial curve, poor fit]"
O=C1CCCc2cc3c(ccc4ccccc43)cc21,inactive: -8.92%,
N#C/C(=C\c1cccnc1)C(=O)Nc1ccc(SC(F)F)cc1,,"inconclusive: 44.7 µM [inhibitor, partial curve, poor fit]"
Cc1ccnc(NC(=O)c2cccc(S(=O)(=O)N3CCOCC3)c2)c1,,"inconclusive: 63.1 µM [inhibitor, partial curve, poor fit]"
N#CC1=C(N)OC2=C(C(=O)CCC2)C1c1ccc(-c2ccc(Cl)cc2Cl)o1 (stereo not given),,active: 28.2 µM
CCN(Cc1ccco1)C(=O)c1cc2ccc(OC)cc2[nH]1,,"inconclusive: 15.8 µM [inhibitor, partial curve, poor fit]"
CCOC(=O)c1cccc(NC(=O)CCc2nc(-c3ccc(C)cc3)no2)c1,inactive: 16.6%,
CCCCn1c(=O)n(CC(=O)NCc2ccc(C)cc2)c(=O)c2c1ncn2Cc1ccco1,inactive: -12.3%,
CN1CC(=O)N(C2CCNC2)Cc2c(NCC3CCCCC3)ncnc21 (stereo not given),,"inconclusive: 2.85 µM [inhibitor, single point]"
c1ccc(Cc2ccc(OCCN3CCOCC3)cc2)cc1,inactive: -16.3%,
Cc1ccc(C2Cn3nnc(-c4noc(-c5ccccn5)n4)c3CO2)cc1 (stereo not given),inactive: 9.51%,
Cc1ccc(SCCNC(=S)Nc2ccc(Nc3ccccc3)cc2)cc1,,"inconclusive: 6.31 µM [inhibitor, full curve, poor fit]"
O=C(N/N=C/C(Br)=C/c1ccccc1)c1cccs1,inactive: -0.465%,
Cc1ccc(NC(=O)C(Sc2ccc(S(=O)(=O)N3CCCC3)cn2)c2ccccc2)cc1 (stereo not given),,"inconclusive: 5.01 µM [inhibitor, full curve]"
O=C(c1cnn2c(C(F)(F)F)cc(-c3ccco3)nc12)N1CCc2ccccc2C1,,"inconclusive: 35.5 µM [inhibitor, partial curve, poor fit]"
Cc1ccc(SCCC(=O)NCCC(C)C)cc1,inactive: -4.44%,
Cc1cc(NC(=O)Cc2ccccc2C)no1,,"inconclusive: 2.51 µM [inhibitor, full curve, poor fit]"
Cc1ccc(C(C)(C)C)cc1S(=O)(=O)N1CC(=O)Nc2ccccc21,,"inconclusive: 158 µM [inhibitor, partial curve, poor fit]"
C/C(=N/Nc1nc(C)c(C)s1)c1cccc([N+](=O)[O-])c1,inactive: 0.63%,
CC(C)CC(=O)N1CCN(Cc2cccc(Cl)c2)CC1,,"inconclusive: 4.47 µM [inhibitor, full curve, poor fit]"
CC(=O)c1cnn(-c2cc(Nc3ccc(F)c(F)c3)nc(C)n2)c1C,,"inconclusive: 50.1 µM [inhibitor, single point]"
CCCOc1ccc(C(=O)CCC(=O)Nc2ccc(N3CCN(C)CC3)cc2)cc1,inactive: 0%,

# Three structures from above, arranged by count of non-hydrogen atoms, rising.
Structure (SMILES),"activity change, negative = inhibition",Potency
COc1ccc(C(=O)CCN2CCC(C)CC2)cc1,inactive: -14.5%,
C/C(=N/Nc1nc(C)c(C)s1)c1cccc([N+](=O)[O-])c1,inactive: 0.63%,
CC(=O)n1cc([C@H]2C=C(C(=O)Nc3ccccc3)O[C@@H](OCCCCO)C2)c2ccccc21,,"inconclusive: 63.1 µM [inhibitor, partial curve, poor fit]"

# (more compounds)

Structure (SMILES),"activity change, negative = inhibition",Potency
Cc1ccc(Cn2c(C3CCN(C(=O)c4cccc(C(F)(F)F)c4)CC3)n[nH]c2=O)cc1,,"inconclusive: 39.8 µM [inhibitor, full curve]"
CCCCC[C@H](C)N1C[C@@H](COCc2ccccc2)Oc2cc(N3CC[C@H](O)C3)ccc2S1(=O)=O,,"inconclusive: 44.7 µM [inhibitor, partial curve, poor fit]"
CCOc1ccc2[nH]c(=S)sc2c1,,active: 35.5 µM
Cc1ccccc1-c1cc(C(=O)O)c2ccc(C)c(C)c2n1,,"inconclusive: 31.6 µM [inhibitor, single point]"
Oc1ccc(Nc2nc(-c3cccs3)cs2)cc1,inactive: -7.64%,
CCN(CC)CCNC(=O)Cn1cnc2sc(C)c(S(=O)(=O)N3CCN(c4ncccn4)CC3)c2c1=O,inactive: 1.43%,
COc1cccc(Oc2cnc(N)nc2-c2ccc(OCc3ccccc3)cc2O)c1,,"inconclusive: 14.1 µM [inhibitor, full curve, poor fit]"
Cc1cc(C)n2nc(SCc3cccc(F)c3)nc2n1,,"inconclusive: 35.5 µM [inhibitor, single point]"
O=C(c1scc2c1CCCC2)N1CCOCC1,,"inconclusive: 39.8 µM [inhibitor, single point]"
Cc1ccc2nc(N3CCC(C(=O)O)CC3)nc(-c3ccccc3)c2c1,,"inconclusive: 31.6 µM [inhibitor, partial curve, poor fit]"
CCOC(=O)/C(=N\Nc1ccccc1Cl)N(C)C1CCCCC1,,"inconclusive: 31.6 µM [inhibitor, partial curve]"
C[N+](C)(C)CC(=O)N/N=C/c1c2ccccc2cc2ccccc12,inconclusive: -46.1% [inhibitor],
C(#CC1CCCCC1)c1ccc2c(c1)COc1c3ccccc3nn1-2,inactive: -10.9%,
c1ccc(N2CCN(c3nc4cc5c(cc4s3)OCO5)CC2)cc1,inactive: -2.39%,
O=[N+]([O-])c1cccc(/C=N/Nc2ccccn2)c1,inactive: -3.48%,
CCOc1ccc(N2C(=O)c3c(C(=O)OC)ncn3CC2(C)C(=O)NC2CCCCCC2)cc1 (stereo not given),,"inconclusive: 28.2 µM [inhibitor, partial curve, poor fit]"
O=[N+]([O-])c1ccc(C(c2sc3nc(-c4ccco4)nn3c2O)N2CCC3(CC2)OCCO3)cc1 (stereo not given),,"inconclusive: 10 µM [inhibitor, partial curve, poor fit]"
O=C(O)c1cccnc1Nc1cccc(C(F)(F)F)c1,,"inactive and inconclusive: 5.44 µM [inhibitor, partial curve, poor fit]"
NC(=O)C[N+]1(CC#CC(O)(c2ccccc2)c2ccccc2)CCCC1,,"inconclusive: 22.4 µM [inhibitor, partial curve, poor fit]"
Cc1cc(NC(=O)CSc2nnnn2-c2cc(Cl)ccc2C)no1,,"inconclusive: 126 µM [inhibitor, partial curve, poor fit]"
CC(C)CNC(=O)CNC(=O)CC1CCCCC1,,"inconclusive: 70.8 µM [inhibitor, partial curve, poor fit]"
COC(=O)[C@H](NC(=O)[C@@H]1[C@@H](NC(=O)Nc2cccc(OC)c2)CCN1C(=O)C=C(C)C)C(C)C,inactive: -7.85%,
